Measured values taken from article PMC5037378.
Read-outs that look alike come from different tables or passages of the source. These are yes or no findings as the source states them, for the method shown. In cells and extracts the contact can be indirect. These calls come from enrichment with a bait or labelling near it, and not all partners need be listed.

The chains behind the UniProt entries cited, without tags or fusion partners.
UniProt Q63610: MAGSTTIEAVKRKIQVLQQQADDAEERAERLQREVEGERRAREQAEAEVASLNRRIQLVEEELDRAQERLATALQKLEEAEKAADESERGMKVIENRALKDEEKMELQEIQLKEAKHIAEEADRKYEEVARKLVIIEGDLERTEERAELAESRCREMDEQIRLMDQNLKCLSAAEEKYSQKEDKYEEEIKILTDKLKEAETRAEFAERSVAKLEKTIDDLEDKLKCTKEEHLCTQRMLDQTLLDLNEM
UniProt P61765: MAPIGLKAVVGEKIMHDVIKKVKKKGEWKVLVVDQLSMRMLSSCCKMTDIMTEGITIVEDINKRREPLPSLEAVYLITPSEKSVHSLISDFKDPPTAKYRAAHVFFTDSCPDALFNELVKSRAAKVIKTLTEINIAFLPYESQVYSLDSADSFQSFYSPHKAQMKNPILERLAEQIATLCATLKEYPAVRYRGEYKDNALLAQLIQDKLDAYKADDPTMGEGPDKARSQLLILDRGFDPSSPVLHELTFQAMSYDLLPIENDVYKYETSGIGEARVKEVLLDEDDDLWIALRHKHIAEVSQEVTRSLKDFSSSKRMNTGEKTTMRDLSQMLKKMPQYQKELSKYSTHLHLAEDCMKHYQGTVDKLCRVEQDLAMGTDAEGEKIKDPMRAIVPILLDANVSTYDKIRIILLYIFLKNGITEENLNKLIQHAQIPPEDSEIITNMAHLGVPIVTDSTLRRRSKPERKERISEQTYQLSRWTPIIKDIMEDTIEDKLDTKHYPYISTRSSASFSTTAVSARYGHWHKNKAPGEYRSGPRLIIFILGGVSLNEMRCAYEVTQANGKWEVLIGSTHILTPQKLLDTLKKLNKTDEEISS
UniProt Q9JMJ4: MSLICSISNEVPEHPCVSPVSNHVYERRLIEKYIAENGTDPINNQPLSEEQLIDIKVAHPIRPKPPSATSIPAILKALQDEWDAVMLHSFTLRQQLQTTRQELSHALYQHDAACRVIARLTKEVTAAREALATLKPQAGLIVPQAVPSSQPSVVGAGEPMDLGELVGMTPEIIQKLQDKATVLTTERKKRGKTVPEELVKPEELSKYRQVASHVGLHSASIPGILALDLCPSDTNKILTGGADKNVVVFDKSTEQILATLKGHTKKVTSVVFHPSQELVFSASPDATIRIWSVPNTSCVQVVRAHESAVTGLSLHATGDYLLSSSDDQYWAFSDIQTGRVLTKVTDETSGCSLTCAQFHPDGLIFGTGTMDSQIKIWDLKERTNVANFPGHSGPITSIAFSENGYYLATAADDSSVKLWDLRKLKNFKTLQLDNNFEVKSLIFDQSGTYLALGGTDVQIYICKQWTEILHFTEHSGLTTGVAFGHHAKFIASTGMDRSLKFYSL
UniProt P11442: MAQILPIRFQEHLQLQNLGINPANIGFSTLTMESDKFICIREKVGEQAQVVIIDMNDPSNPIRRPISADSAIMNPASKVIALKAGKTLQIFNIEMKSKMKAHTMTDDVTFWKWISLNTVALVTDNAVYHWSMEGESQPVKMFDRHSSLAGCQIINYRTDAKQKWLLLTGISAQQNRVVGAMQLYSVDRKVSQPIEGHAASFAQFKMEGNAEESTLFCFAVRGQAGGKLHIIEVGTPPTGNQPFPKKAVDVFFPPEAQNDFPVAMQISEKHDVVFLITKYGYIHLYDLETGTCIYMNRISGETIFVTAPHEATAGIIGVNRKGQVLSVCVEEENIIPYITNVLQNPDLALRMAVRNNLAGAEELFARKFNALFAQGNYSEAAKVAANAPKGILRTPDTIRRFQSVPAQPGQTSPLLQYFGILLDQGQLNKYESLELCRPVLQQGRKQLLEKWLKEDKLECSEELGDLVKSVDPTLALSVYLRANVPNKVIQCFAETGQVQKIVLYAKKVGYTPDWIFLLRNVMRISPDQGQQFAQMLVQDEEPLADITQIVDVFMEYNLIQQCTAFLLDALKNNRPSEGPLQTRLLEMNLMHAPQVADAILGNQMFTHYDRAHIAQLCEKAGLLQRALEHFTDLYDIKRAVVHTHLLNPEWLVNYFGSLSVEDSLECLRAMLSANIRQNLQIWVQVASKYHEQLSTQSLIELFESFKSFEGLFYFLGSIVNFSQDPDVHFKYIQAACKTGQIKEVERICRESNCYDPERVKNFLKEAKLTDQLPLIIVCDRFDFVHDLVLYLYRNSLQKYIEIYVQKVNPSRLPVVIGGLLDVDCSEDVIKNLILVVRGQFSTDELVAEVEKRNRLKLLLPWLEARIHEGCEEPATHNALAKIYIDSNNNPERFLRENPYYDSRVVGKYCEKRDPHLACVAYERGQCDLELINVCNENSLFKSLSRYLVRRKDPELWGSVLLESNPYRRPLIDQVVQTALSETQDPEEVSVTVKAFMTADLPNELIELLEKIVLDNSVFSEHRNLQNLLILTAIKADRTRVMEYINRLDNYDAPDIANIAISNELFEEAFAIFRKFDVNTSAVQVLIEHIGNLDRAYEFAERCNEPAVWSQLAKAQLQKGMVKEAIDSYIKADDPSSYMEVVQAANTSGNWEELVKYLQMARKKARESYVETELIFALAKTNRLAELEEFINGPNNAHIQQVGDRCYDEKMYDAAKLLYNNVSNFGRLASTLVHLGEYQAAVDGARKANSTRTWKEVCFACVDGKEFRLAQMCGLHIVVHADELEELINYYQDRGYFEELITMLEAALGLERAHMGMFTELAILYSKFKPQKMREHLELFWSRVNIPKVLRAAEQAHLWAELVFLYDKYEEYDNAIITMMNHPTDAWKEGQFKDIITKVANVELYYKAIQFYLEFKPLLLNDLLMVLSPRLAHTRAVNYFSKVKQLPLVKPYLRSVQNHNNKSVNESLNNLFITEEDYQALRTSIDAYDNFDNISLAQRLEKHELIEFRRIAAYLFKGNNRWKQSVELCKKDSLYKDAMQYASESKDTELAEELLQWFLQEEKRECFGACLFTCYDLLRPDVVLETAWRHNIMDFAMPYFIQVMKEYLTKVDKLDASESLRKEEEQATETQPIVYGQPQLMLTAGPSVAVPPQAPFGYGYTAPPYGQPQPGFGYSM
UniProt Q4FZT9: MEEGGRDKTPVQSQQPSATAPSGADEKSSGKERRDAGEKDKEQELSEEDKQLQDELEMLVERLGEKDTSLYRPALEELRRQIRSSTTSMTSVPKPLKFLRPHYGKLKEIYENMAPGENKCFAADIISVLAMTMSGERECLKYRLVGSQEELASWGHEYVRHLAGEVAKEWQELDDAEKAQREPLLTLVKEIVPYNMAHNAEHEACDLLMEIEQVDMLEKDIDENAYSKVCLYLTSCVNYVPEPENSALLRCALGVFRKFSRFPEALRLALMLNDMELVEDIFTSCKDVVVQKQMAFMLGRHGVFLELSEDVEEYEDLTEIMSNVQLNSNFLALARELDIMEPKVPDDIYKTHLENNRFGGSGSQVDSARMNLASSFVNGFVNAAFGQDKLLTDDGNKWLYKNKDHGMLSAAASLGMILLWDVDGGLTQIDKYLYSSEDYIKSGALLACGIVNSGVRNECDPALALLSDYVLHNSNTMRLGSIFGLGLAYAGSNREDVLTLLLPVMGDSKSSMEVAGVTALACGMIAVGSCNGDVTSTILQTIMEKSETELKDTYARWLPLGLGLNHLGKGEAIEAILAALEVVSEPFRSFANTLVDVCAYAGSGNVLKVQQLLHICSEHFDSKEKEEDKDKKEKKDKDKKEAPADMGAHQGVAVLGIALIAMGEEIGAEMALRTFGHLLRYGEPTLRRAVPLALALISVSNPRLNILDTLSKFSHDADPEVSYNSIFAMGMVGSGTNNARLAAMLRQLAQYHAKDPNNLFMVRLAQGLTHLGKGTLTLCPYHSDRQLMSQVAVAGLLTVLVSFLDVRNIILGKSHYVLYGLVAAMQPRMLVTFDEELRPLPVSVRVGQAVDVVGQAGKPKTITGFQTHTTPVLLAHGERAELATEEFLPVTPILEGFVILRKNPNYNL
UniProt P62716: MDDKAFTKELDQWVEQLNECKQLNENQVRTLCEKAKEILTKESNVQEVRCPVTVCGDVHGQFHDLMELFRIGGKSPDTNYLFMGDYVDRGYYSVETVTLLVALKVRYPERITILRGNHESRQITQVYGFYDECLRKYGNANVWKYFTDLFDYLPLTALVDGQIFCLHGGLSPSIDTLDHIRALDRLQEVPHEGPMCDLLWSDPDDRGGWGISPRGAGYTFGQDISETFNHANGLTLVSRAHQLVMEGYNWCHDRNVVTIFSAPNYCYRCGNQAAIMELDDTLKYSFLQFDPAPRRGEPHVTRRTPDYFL
UniProt P18484: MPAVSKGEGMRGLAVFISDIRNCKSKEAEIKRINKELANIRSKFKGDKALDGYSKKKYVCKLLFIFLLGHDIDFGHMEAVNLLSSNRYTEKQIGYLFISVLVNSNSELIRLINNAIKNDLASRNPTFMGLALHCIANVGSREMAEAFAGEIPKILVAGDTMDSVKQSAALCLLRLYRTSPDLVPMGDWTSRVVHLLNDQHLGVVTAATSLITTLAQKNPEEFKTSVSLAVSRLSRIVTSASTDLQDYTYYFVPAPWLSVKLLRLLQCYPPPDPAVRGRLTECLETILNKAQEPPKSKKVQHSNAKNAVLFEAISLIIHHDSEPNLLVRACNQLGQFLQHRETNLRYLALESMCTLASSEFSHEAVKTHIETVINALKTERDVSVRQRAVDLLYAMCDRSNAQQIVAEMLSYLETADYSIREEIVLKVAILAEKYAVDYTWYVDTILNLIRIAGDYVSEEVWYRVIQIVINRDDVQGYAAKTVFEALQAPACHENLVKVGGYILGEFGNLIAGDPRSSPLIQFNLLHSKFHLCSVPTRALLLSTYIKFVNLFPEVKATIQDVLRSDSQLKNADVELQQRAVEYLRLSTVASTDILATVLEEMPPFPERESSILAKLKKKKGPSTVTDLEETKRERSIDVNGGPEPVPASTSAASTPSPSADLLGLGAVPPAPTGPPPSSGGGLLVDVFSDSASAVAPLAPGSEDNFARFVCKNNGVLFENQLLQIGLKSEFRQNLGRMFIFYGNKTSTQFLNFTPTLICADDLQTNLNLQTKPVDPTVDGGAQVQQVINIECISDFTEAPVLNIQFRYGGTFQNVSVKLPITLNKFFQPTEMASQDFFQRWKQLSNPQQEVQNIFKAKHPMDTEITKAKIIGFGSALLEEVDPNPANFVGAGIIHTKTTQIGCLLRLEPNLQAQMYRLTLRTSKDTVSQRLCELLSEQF
UniProt P04897: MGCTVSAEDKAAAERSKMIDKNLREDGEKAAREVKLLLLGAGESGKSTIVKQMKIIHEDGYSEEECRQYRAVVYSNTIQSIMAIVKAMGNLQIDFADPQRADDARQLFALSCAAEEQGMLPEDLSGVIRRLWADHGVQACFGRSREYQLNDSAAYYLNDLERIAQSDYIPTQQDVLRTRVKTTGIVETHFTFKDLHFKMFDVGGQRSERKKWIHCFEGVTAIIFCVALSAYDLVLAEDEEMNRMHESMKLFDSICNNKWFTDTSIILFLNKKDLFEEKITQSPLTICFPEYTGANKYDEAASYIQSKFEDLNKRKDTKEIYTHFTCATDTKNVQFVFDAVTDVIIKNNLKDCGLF

T1: HB-GAM (heparin-binding growth-associated molecule; pleiotrophin) (rat) (UniProt P63090)
T1 sequence: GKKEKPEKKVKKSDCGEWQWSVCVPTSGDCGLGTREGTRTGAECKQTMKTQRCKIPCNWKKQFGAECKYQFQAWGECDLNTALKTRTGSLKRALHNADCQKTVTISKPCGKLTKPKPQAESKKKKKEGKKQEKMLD


What was measured:
[1] = target: T1, HB-GAM (heparin-binding growth-associated molecule; pleiotrophin) (rat); assay: affinity purification with mass spectrometry; HB-GAM covalently bound to long-arm epoxy-activated magnetic beads (BSA beads as control), added to cultured hippocampal primary neurons, 2 h at 4 °C, then 30 min with 2 mM cross-linker DTSSP; lysis in RIPA with 50-100 mM n-dodecyl β-D-maltoside; bead-bound transmembrane fraction analysed by LC-MS; two independent samples; only the target purified
[2] = target: T1, HB-GAM (heparin-binding growth-associated molecule; pleiotrophin) (rat); assay: as above; remark: listed apart in the source

| binding [1] | binding [2] | Molecule |
| --- | --- | --- |
| binds | – | Tropomyosin alpha-3 chain (from UniProt Q63610 1-248) |
| binds | – | Syntaxin-binding protein 1 (from UniProt P61765 1-594) |
| binds | – | Pre-mRNA-processing factor 19 (from UniProt Q9JMJ4 1-504) |
| binds | – | Clathrin heavy chain 1 (from UniProt P11442 1-1675) |
| binds | – | 26S proteasome non-ATPase regulatory subunit 2 (from UniProt Q4FZT9 1-908) |
| binds | – | Serine/threonine-protein phosphatase 2A catalytic subunit beta isoform (from UniProt P62716 1-309) (enzyme) |
| binds | – | AP-2 complex subunit alpha-2 (from UniProt P18484 1-938) |
| binds | – | Guanine nucleotide-binding protein G(i) subunit alpha-2 (from UniProt P04897 1-355) |
| – | binds | Transketolase (protein, UniProt P50137 1-623) MEGYHKPDQQKLQALKDTANRLRISSIQATTAAGSGHPTSCCSAAEIMAVLFFHTMRYKALDPRNPHNDRFVLSKGHAAPILYAVWAEAGFLPEAELLNLRKISSDLDGHPVPKQAFTDVATGSLGQGLGAACGMAYTGKYFDKASYRVYCMLGDGEVSEGSVWEAMAFAGIYKLDNLVAIFDINRLGQSDPAPLQHQVDVYQKRCEAFGWHAIIVDGHSVEELCKAFGQAKHQPTAIIAKTFKGRGITGIEDKEAWHGKPLPKNMAEQIIQEIYSQVQSKKKILATPPQEDAPSVDIANIRMPTPPNYKVGDKIATRKAYGLALAKLGHASDRIIALDGDTKNSTFSELFKKEHPDRFIECYIAEQNMVSIAVGCATRDRTVPFCSTFAAFFTRAFDQIRMAAISESNINLCGSHCGVSIGEDGPSQMALEDLAMFRSVPMSTVFYPSDGVATEKAVELAANTKGICFIRTSRPENAIIYSNNEDFQVGQAKVVLKSKDDQVTVIGAGVTLHEALAAAEMLKKEKIGVRVLDPFTIKPLDKKLILDCARATKGRILTVEDHYYEGGIGEAVSAVVVGEPGVTVTRLAVSQVPRSGKPAELLKMFGIDKDAIVQAVKGLVTKG |
| – | binds | Glypican-2 (receptor, UniProt P51653 22-556, heparan sulfate chains; glycosylphosphatidylinositol (GPI) anchor) HGSEAKVVRSCAETRQVLGARGYSLNLIPPSLISGEHLQICPQEYTCCSSETEQKLIRDAEVTFRGLVEDSGSFLIHTLAARHRKFNEFFREMLSISQHSLAQLFSHSYGRLYSQHAVIFNSLFSGLRDYYEKSGEGLDDTLADFWAQLLERAFPLLHPQYSFPPDFLLCLTRLTSTADGSLQPFGDSPRRLRLQITRALVAARALVQGLETGRNVVSEALKVPMLEGCRQALMRLIGCPLCRGVPSLMPCRGFCLNVAHGCLSSRGLEPEWGGYLDGLLLLAEKLQGPFSFELAAESIGVKISEGLMHLQENSVKVSAKVFQECGTPHPVQSRNRRAPAPREETSRSWRSSAEEERPTTAAGTNLHRLVWELRERLSRVRGFWAGLPVTVCGDSRMAADLSQEAAPCWTGVGRGRYMSPVVVGSLNEQLHNPELDTSSPDVPTRRRRLHLRAATARMKAAALGQDLDMHDADEDASGSGGGQQYADDWKAGAAPVVPPARPPRPPRPPRRDGLGVRGGSGSARYNQGRSRNLGS |
| – | binds | Ribose-phosphate pyrophosphokinase 2 (enzyme, UniProt P09330 1-318) MPNIVLFSGSSHQDLSQRVADRLGLELGKVVTKKFSNQETSVEIGESVRGEDVYIIQSGCGEINDNLMELLIMINACKIASSSRVTAVIPCFPYARQDKKDKSRAPISAKLVANMLSVAGADHIITMDLHASQIQGFFDIPVDNLYAEPAVLQWIRENITEWRNCIIVSPDAGGAKRVTSIADRLNVEFALIHKERKKANEVDRMVLVGDVKDRVAILVDDMADTCGTICHAADKLLSAGATKVYAILTHGIFSGPAISRINNAAFEAVVVTNTIPQEDKMKHCSKIQVIDISMILAEAIRRTHNGESVSYLFSHVPL |
| – | binds | Proteasome subunit alpha type-3 (protein, UniProt P18422 1-255) MSSIGTGYDLSASTFSPDGRVFQVEYAMKAVENSSTAIGIRCKDGVVFGVEKLVLSKLYEEGSNKRLFNVDRHVGMAVAGLLADARSLADIAREEASNFRSNFGYNIPLKHLADRVAMYVHAYTLYSAVRPFGCSFMLGSYSVNDGAQLYMIDPSGVSYGYWGCAIGKARQAAKTEIEKLQMKEMTCRDVVKEVAKIIYIVHDEVKDKAFELELSWVGELTKGRHEIVPKDVREEAEKYAKESLKEEDESDDDNM |
| – | binds | 26S proteasome non-ATPase regulatory subunit 1 (protein, UniProt O88761 1-953) MITSAAGIISLLDEEEPQLKEFALHKLNAVVNDFWAEISESVDKIEVLYEDEGFRSRQFAALVASKVFYHLGAFEESLNYALGAGDLFNVNDNSEYVETIIAKCIDHYTKQCVENADLPEGEKKPIDQRLEGIVNKMFQRCLDDHKYKQAIGIALETRRLDVFEKTILESNDVPGMLAYSLKLCMSLMQNKQFRNKVLRVLVKIYMNLEKPDFINVCQCLIFLDDTQAVSDILEKLVKEDNLLMAYQICFDLYESASQQFLSSVIQNLRTVGTPIASVPGSTNTGTVPGPEKDSDSMETEEKTAGAVAGKTPDASPEPKDQTLKMIKILSGEMAIELHLQFLIRNNNTDLMILKNTKDAVRNSVCHTATVIANSFMHCGTTSDQFLRDNLEWLARATNWAKFTATASLGVIHKGHEKEALQLMATYLPKDTSPGSAYQEGGGLYALGLIHANHGGDIIDYLLNQLKNASNDIVRHGGSLGLGLAAMGTARQDVYDLLKTNLYQDDAVTGEAAGLALGLVMLGSKNTQAIEDMVGYAQETQHEKILRGLAVGIALVMYGRMEEADALIESLCRDKDPILRRSGMYTVAMAYCGSGNNKAIRRLLHVAVSDVNDDVRRAAVESLGFILFRTPEQCPSVVSLLSESYNPHVRYGAAMALGVCCAGTGNKEAINLLEPMTNDPVNYVRQGALIASALIMIQQTEITCPKVNQFRQLYSKVINDKHDDVMAKFGAILAQGILDAGGHNVTISLQSRTGHTHMPSVVGVLVFTQFWFWFPLSHFLSLAYTPTCIIGLNKDLKMPKVQYKSNCKPSTFAYPAPLEVPKEKEKEKVSTAVLSITAKAKKKEKEKEKKEEEKMEVDEAEKKEEKEKKKEPEPNFQLLDNPARVMPAQLKVLSMTETCRYQPFKPLSIGGIIILKDTSEDIEELVEPVAAHGPKIEEEEQEPEPPEPFEYIDD |
| – | binds | Arginine–tRNA ligase cytoplasmic (enzyme, UniProt P40329 1-660) MDGLVAQCSARLLQQEKEIKSLTAEIDRLKNCSYLEASPSLEQLREENLKLKYRLNILRRSLQAERKRPTKNMININSRLQELFGCAIKAAYPDLENPPLVVTPSQQPKFGDYQCNSAMGISQMLKAKEQKVSPREIAENITKHLPNNEYIDRVEIAGPGFINVHLRKDFVSEQLTNLLVNGVQLPVLGENEKVIVDFSSPNIAKEMHVGHLRSTIIGESMSRLFEFAGYNVLRLNHVGDWGTQFGMLIAHLQDKFPDYLTVSPPIGDLQAFYKESKKRFDTEEEFKKRAYECVVLLQSKNPDIMKAWNLICDVSREEFNKIYDALDITLIERGESFYQDRMKDIVKEFEDKGFVQVDDGRKIVFVPGCSVPLTIVKSDGGYTYDTSDLAAIKQRLFEEKANKIIYVVDNGQATHFQTVFAAAQMIGWYDPKVTRVAHVGFGVVLGEDKKKFKTRSGETVRLMDLLEEGLRRSMDKLKEKERDKVLTEEELKAAQTSVAYGCIKYADLSHNRLNDYVFSFDKMLDDRGNTAAYLLYAFTRIRSIARLANIDEEMLQRAARETKIILDHEKEWKLGRCILRFPEILQKILDDLFLHTLCDYIYELATTFTEFYDSCYCVEKDRQTGKVLKVNMWRMLLCEAVAAVMAKGFDILGIKPVQRM |
